In paper PMC5779226:
Results are given in words; binding and its absence hold for the method and conditions named. In cells and extracts the contact can be indirect. For part of these data: A result given as binding can be weak or reduced; the word gives no strength. For part of these data: Tags and fused reporters may be left off the sequences shown. Values belong to the molecule of their own block, whether it stands above or below them.

Tests used:
[1] = target: T1, eGFP-ME31B (transfected in S2 cells) (Drosophila) (UniProt P23128); assay: co-IP; S2 cells transfected with eGFP-ME31B (control FLAG-eGFP), anti-GFP antibodies on protein G beads; western blot
T1 sequence: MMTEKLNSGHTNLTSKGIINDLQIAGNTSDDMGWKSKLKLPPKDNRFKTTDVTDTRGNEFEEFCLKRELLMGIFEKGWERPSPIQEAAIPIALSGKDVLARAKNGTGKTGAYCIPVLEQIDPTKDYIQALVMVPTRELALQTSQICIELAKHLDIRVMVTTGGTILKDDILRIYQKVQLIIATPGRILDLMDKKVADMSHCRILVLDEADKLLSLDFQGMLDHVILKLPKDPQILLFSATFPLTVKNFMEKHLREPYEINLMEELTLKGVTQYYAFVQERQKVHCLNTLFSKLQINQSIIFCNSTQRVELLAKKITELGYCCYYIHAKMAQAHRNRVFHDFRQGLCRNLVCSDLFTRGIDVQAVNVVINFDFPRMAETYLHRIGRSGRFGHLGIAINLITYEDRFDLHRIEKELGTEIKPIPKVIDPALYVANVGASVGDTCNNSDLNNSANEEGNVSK

[2] = target: eIF4G (D. melanogaster (endogenous in S2 cells and embryos)); assay: co-IP; S2 cell extracts, anti-PABP or anti-eIF4G Fabs (control C1) on anti-FLAG beads, 2-3 hr at 4°C, six washes; western blot

binding [1]: binds
Molecule: HPat (D. melanogaster (endogenous in S2 cells))

binding [1]: no binding
Molecule: eIF4G

binding [2]: no binding
B1: ME31B (protein, UniProt P23128 1-459)
chain: T1 sequence
